By UniProt entry, the sequences of proteins in these tests, tags left out. Where a name states a change or a piece, a line headed by the entry shows the natural chain unless it says otherwise.
UniProt F7VVV0: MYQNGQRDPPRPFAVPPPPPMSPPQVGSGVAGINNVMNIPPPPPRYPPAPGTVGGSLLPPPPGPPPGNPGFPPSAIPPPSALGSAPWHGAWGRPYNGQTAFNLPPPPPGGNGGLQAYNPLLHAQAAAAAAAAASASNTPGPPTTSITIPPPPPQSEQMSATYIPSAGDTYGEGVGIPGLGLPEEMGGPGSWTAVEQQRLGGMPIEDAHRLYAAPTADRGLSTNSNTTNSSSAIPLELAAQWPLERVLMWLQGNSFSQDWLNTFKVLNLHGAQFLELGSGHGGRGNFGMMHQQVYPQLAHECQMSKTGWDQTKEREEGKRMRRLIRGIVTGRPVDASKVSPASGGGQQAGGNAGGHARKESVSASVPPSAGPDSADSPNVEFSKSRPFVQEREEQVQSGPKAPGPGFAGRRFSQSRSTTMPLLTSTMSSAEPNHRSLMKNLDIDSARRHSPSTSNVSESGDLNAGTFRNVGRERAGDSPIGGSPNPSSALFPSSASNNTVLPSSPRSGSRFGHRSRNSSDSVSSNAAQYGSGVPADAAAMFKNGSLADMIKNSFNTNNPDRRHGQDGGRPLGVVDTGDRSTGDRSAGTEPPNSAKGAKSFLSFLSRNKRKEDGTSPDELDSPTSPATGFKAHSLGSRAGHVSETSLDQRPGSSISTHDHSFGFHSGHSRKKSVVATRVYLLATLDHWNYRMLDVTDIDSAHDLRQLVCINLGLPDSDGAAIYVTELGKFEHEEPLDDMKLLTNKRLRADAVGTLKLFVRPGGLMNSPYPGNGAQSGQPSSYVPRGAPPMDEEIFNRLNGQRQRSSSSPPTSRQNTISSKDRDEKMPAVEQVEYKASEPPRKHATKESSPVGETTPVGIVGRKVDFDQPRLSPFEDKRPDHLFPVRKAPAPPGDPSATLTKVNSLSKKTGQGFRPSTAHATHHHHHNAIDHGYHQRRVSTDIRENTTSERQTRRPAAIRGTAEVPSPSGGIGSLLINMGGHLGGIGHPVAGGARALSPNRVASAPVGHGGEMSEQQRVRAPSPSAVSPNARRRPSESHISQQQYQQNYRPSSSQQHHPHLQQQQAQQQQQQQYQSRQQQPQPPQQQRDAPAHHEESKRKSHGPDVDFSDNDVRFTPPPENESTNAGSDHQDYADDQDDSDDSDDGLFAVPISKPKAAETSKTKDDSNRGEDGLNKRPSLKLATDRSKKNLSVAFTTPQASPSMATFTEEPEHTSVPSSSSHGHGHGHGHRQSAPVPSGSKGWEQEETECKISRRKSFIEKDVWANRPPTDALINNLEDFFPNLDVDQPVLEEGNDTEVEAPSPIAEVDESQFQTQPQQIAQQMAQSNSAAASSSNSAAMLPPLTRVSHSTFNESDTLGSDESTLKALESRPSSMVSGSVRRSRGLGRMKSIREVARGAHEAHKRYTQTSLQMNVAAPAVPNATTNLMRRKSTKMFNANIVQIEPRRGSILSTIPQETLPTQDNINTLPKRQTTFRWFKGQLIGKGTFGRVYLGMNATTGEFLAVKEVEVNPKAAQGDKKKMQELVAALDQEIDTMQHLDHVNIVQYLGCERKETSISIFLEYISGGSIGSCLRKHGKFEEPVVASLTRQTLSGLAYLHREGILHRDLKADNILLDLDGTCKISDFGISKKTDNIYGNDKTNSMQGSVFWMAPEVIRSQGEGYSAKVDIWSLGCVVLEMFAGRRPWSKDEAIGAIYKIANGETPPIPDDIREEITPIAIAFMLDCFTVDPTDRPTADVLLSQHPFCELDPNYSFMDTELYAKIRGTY
UniProt F7VLP8: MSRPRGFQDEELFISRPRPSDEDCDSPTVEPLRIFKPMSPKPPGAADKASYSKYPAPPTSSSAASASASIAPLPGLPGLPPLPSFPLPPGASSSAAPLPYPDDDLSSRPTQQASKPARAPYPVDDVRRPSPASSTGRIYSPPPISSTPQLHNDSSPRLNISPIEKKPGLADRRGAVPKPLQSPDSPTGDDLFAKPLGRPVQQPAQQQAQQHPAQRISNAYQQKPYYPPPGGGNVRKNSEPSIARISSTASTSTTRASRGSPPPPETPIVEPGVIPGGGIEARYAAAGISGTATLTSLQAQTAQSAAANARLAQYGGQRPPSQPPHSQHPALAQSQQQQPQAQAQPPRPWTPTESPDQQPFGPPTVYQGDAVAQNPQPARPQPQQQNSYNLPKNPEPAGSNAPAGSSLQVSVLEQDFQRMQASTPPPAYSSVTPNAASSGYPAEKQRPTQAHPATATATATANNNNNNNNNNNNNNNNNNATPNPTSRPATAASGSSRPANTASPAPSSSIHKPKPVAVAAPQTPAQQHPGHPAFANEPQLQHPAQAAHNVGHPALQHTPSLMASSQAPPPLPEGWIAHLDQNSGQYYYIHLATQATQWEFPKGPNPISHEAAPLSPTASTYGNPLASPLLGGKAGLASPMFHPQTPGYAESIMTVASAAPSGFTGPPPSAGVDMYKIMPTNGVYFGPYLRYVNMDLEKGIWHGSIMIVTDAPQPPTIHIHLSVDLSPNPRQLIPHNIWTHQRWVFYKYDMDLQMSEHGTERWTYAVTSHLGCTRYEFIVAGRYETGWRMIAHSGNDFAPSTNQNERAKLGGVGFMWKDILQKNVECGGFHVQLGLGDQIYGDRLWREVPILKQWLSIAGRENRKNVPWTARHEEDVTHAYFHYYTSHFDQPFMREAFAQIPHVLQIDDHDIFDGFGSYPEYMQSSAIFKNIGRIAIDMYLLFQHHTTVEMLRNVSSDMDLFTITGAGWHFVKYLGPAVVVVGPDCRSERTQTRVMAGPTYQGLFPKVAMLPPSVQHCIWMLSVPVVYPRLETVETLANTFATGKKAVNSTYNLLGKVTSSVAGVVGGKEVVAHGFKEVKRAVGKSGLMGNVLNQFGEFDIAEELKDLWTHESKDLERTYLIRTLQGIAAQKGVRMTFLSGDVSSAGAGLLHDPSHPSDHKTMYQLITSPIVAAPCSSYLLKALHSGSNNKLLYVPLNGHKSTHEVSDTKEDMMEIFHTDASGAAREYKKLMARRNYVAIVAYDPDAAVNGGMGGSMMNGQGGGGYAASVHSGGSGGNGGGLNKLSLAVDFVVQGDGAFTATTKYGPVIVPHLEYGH
UniProt F7W245: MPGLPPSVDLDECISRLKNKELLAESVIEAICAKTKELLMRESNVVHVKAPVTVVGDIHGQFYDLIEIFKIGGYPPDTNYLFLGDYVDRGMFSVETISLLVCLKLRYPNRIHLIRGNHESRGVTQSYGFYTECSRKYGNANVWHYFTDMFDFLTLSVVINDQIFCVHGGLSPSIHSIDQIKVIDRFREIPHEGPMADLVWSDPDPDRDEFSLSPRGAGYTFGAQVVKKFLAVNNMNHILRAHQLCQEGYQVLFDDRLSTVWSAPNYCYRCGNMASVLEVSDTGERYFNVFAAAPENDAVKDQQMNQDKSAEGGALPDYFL

According to paper PMC4916389:

Assays:
Assay in all cases: two-hybrid; Gal4 AD (pGADT7 derivatives, PJ69-4a) and BD (pGBKT7 derivatives, PJ69-4α) fusions in mated diploid S. cerevisiae; growth on SD medium lacking adenine, histidine, leucine and tryptophan/uracil; transactivating constructs pB-pp2Ac1, pB-pro11, pB-Smmob3 and pB-ENT1 omitted
[1] = biological target: MAPK kinase kinase MIK1, yeast two-hybrid fusion (Sordaria macrospora) (UniProt F7VVV0)
[2] = biological target: T1, PP2AA, yeast two-hybrid fusion (Sordaria macrospora) (UniProt F7VS87)
T1 sequence: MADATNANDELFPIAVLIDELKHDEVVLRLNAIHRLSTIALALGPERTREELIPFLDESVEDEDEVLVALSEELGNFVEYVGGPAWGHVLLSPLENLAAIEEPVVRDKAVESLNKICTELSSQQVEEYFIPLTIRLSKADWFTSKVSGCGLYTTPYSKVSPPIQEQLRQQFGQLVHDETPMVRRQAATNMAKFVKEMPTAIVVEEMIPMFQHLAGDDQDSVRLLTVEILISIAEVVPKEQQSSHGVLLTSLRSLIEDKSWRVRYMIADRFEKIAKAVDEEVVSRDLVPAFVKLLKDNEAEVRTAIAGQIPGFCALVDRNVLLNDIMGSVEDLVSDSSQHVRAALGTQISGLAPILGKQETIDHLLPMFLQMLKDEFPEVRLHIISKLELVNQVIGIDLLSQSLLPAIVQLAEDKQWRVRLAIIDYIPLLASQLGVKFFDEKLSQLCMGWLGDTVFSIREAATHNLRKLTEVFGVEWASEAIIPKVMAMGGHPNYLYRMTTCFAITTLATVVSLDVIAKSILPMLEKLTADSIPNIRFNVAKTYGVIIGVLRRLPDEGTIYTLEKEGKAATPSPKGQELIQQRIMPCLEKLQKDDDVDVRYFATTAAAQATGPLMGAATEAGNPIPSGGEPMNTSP

[3] = biological target: T2, PRO22, yeast two-hybrid fusion (Sordaria macrospora) (UniProt F7VWV9)
T2 sequence: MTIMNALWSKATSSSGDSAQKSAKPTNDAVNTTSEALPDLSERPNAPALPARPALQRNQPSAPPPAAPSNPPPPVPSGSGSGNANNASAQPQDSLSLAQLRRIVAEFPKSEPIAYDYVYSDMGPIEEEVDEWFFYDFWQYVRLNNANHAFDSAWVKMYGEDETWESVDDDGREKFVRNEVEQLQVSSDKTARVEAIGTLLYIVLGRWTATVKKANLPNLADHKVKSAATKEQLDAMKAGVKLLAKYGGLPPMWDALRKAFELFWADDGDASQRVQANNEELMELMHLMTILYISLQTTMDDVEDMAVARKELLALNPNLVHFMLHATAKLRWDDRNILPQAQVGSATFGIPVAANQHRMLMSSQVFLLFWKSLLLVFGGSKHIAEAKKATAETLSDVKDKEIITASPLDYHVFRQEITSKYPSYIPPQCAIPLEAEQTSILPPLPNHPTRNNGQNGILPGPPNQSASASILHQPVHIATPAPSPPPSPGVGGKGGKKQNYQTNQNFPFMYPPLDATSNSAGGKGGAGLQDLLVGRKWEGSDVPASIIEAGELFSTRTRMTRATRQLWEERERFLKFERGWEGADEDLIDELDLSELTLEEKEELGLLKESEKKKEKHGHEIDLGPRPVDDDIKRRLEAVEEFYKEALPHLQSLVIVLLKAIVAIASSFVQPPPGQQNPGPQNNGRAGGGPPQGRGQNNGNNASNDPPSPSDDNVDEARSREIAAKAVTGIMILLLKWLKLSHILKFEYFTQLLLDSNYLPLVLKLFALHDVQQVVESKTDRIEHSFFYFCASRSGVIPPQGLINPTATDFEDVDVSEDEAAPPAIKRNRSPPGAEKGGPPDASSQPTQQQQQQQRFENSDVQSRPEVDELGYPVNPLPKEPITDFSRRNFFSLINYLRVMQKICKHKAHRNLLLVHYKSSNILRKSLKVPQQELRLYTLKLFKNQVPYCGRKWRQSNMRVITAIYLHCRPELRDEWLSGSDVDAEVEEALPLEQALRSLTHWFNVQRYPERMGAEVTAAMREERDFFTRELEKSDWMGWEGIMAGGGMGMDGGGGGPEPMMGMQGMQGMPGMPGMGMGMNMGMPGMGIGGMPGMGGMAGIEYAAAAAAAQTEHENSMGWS

[4] = biological target: PRO22-PxxP (full-length PRO22 with a mutation in the PxxP motif), yeast two-hybrid fusion (Sordaria macrospora) (UniProt F7VWV9)
[5] = biological target: PRO40, yeast two-hybrid fusion (Sordaria macrospora) (UniProt F7VLP8)
[6] = biological target: T3, PTPA1, yeast two-hybrid fusion (Sordaria macrospora) (UniProt F7VW68)
T3 sequence: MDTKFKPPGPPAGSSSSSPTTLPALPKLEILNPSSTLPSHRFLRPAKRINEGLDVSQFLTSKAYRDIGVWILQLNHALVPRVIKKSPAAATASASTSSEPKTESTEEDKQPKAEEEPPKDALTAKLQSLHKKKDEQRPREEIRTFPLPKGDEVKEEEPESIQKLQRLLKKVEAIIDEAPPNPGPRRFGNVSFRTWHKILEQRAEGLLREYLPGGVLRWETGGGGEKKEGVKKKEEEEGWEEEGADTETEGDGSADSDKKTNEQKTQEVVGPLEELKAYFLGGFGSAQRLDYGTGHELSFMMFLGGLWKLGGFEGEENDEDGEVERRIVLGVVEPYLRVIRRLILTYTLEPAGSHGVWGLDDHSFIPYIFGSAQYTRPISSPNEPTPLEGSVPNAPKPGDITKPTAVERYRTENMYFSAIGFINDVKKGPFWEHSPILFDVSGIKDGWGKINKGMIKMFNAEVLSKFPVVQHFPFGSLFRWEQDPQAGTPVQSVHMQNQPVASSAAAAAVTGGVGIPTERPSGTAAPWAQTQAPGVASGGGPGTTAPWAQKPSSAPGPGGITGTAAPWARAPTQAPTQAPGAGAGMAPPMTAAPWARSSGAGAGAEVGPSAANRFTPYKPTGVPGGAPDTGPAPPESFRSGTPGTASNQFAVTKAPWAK

[7] = biological target: T4, TAP42, yeast two-hybrid fusion (Sordaria macrospora) (UniProt F7VNJ5)
T4 sequence: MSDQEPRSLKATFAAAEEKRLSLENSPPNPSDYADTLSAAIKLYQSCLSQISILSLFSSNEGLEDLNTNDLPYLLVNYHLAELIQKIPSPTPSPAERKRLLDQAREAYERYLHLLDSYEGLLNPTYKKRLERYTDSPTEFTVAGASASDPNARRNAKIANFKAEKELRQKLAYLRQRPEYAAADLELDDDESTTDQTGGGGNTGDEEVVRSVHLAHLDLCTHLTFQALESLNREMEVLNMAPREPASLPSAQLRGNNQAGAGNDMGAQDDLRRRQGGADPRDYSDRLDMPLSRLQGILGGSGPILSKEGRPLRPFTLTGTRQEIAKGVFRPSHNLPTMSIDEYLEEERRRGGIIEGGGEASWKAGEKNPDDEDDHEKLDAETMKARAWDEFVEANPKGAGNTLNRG

Measured: binding

PP2Ac1, yeast two-hybrid fusion (Gal4 activation domain) (from UniProt F7W245) (enzyme)
binds: all assays above

PRO40, yeast two-hybrid fusion (from UniProt F7VLP8)
binds: [2]

These are yes or no findings as the source states them, for the method shown. Binding can be weak; no strength is given. For some assays here: Where a sequence is shown, tags or fusion partners need not be part of it.
